{"source": "paper PMC11975131", "binders": {"B1": {"name": "PABPN1 (protein, UniProt Q86U42 1-306)", "chain": "MAAAAAAAAAAGAAGGRGSGPGRRRHLVPGAGGEAGEGAPGGAGDYGNGLESEELEPEELLLEPEPEPEPEEEPPRPRAPPGAPGPGPGSGAPGSQEEEEEPGLVEGDPGDGAIEDPELEAIKARVREMEEEAEKLKELQNEVEKQMNMSPPPGNAGPVIMSIEEKMEADARSIYVGNVDYGATAEELEAHFHGCGSVNRVTILCDKFSGHPKGFAYIEFSDKESVRTSLALDESLFRGRQIKVIPKRTNRPGISTTDRGFPRARYRARTTNYNSSRSRFYSGFNSRPRGRVYRGRARATSWYSPY"}}, "molecular_target": "IBV nsp15 (endoribonuclease, EndoU) (infectious bronchitis virus (IBV), Beaudette strain)", "experiment": "affinity purification with mass spectrometry; whole-cell lysates of H1299 cells infected with wild-type IBV (MOI 1; 18 h in the methods, 24 h in the legend) immunoprecipitated with 5 ug mouse anti-IBV nsp15 monoclonal antibody pre-bound to protein A + G beads; mouse IgG as control; five washes; LC-MS", "note": "No constants are given. Whether binding was seen depends on the method and setting. In cells and extracts the contact can be indirect. A yes stands for co-enrichment or nearness to the bait. Other partners may have been found.", "data": [{"binder": "B1", "values": [{"measurement": "binding", "result": "binds"}]}]}
